## Cleaved PARP after 72 h of treatment

Every entry is a combination with L-779450 at 1 µM: Oc1cc(-c2nc(-c3ccccc3)[nH]c2-c2ccncc2)ccc1Cl

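The test systems are human melanoma cell lines, treated with two drugs together for 72 h and then stained and imaged. Each value is the cleaved-PARP-positive fraction of nuclei relative to DMSO-treated wells, in %, so that 100 equals the control and higher values mean more apoptosis. Concentrations were fixed for each drug; these are the higher of two levels. No replicate spread is given; individual values may be noisy. The marker varies much from line to line, for technical or biological reasons.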 This is part of the screen, not chosen by result.

Partner,A101D,RVH-421,C32,UACC-257
Oc1nc(-c2ccc(C(F)(F)F)cc2)nc2c1CSCC2 at 10 µM,107,139,139,23.7
O=C(Oc1ccc([N+](=O)[O-])cc1)N1CCC(C(O)(c2ccc3c(c2)OCO3)c2ccc3c(c2)OCO3)CC1 at 5 µM,59.9,85.7,105,49.7
COc1cc2ncnc(Nc3ccc(Oc4ccccc4)cc3)c2cc1OC at 10 µM,158,106,94.4,35.8
C[C@@H]1CCN(C(=O)CC#N)C[C@@H]1N(C)c1ncnc2[nH]ccc12 at 5 µM,140,59.0,129,21.7
Nc1nc(F)nc2c1ncn2[C@@H]1O[C@H](CO)[C@@H](O)[C@@H]1O at 1 µM,71.5,210,97.9,2950
CC[C@]1(O)C[C@H]2CN(CCc3c([nH]c4ccccc34)[C@@](C(=O)OC)(c3cc4c(cc3OC)N(C=O)[C@H]3[C@@](O)(C(=O)OC)[C@H](OC(C)=O)[C@]5(CC)C=CCN6CC[C@]43[C@@H]65)C2)C1 at 0.0005 µM,391,207,276,38.8
COC(=O)c1sccc1S(=O)(=O)Nc1ccc(Nc2ccccc2)cc1OC at 5 µM,66.0,102,129,85.3
O=C(/C=C/c1cccnc1)NCCCCC1CCN(C(=O)c2ccccc2)CC1 at 0.05 µM,118,119,83.6,40.0
O=C(Nc1cc(C(F)(F)F)cc(C(F)(F)F)c1)c1cc(Cl)ccc1O at 0.08 µM,250,83.8,86.0,59.7
Cn1cc(/C=C2\C(=O)Nc3cccnc32)c2ccccc21 at 2 µM,99.4,128,115,56.5
CC(=O)O[C@@]12CO[C@@H]1C[C@H](O)[C@@]1(C)C(=O)[C@H](O)C3=C(C)[C@@H](OC(=O)[C@H](O)[C@@H](NC(=O)OC(C)(C)C)c4ccccc4)C[C@@](O)([C@@H](OC(=O)c4ccccc4)[C@H]21)C3(C)C at 0.0005 µM,409,136,170,244
Cn1c(=O)n(-c2ccc(C(C)(C)C#N)cc2)c2c3cc(-c4cnc5ccccc5c4)ccc3ncc21 at 0.02 µM,1100,178,127,22.3
C[C@]1(O)C[C@@H](c2nc(-c3ccc4ccc(-c5ccccc5)nc4c3)c3c(N)nccn32)C1 at 2 µM,897,68.9,196,34.6
C=CCNC1=C2C[C@@H](C)C[C@H](OC)[C@H](O)[C@@H](C)/C=C(\C)[C@H](OC(N)=O)[C@@H](OC)/C=C\C=C(/C)C(=O)NC(=CC1=O)C2=O at 0.01 µM,52.0,48.8,1670,35.3
CN(c1ncccc1CNc1nc(Nc2ccc3c(c2)CC(=O)N3)ncc1C(F)(F)F)S(C)(=O)=O at 0.4 µM,228,20.1,232,38.4
Nc1cccc2c1CN(C1CCC(=O)NC1=O)C2=O (stereo unspecified) at 5 µM,43.8,53.0,359,20.8
O=S(=O)(c1ccccc1)N(CC(F)(F)F)c1ccc(C(O)(C(F)(F)F)C(F)(F)F)cc1 at 7 µM,74.8,110,106,34.8
Cn1cncc1[C@@](N)(c1ccc(Cl)cc1)c1ccc2c(c1)c(-c1cccc(Cl)c1)cc(=O)n2C at 0.05 µM,64.7,103,447,61.4
NC(=O)Nc1cc(-c2cccc(F)c2)sc1C(=O)N[C@H]1CCCNC1 at 0.1 µM,60.2,96.3,141,61.2
CN(NC(=O)CC(=O)NN(C)C(=S)c1ccccc1)C(=S)c1ccccc1 at 0.03 µM,151,290,336,44.9
Cn1cnc2c(F)c(Nc3ccc(Br)cc3Cl)c(C(=O)NOCCO)cc21 at 0.075 µM,398,115,662,39.1
Cc1cc(N2CCOCC2)cc2[nH]c(-c3c(NC[C@@H](O)c4cccc(Cl)c4)cc[nH]c3=O)nc12 at 1 µM,155,107,240,15.1
C[C@@H](N)c1ccc(C(=O)Nc2ccnc3[nH]ccc23)cc1 at 2 µM,663,216,122,27.4

2 of the entries, repeated:

| Partner | A101D | RVH-421 | C32 | UACC-257 |
|---|---|---|---|---|
| Cn1cc(/C=C2\C(=O)Nc3cccnc32)c2ccccc21 at 2 µM | 99.4 | 128 | 115 | 56.5 |
| Nc1cccc2c1CN(C1CCC(=O)NC1=O)C2=O (stereo unspecified) at 5 µM | 43.8 | 53.0 | 359 | 20.8 |

Source: doi:10.1371/journal.pone.0140310, primary screening data, rounded.